Some of the results follow. Shown are side measurements of this screen, not its main read-out; they come without a call. Most of these compounds were active or inconclusive in the main read-out, so they are no random draw. Words in brackets tell the shape of the fitted curve; partial curves, single points and poor fits give uncertain potencies.
Experiment: qHTS Assay for Lipid Storage Modulators in Drosophila S3 Cells;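 as to cell number change: cells counted by Cell Tracker Red CMTPX staining in the red channel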
Conditions: BODIPY lipid droplet fluorescence, 18-24 h; for cell number change: measured here: cell count max response, cells fed with added oleic acid
Summary of the method: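 Laser-scanning cytometry quantifies lipid droplet accumulation (500–530 nm total intensity; droplet/cell object ratio) in oleic acid-fed (400 uM added) Drosophila S3 cells treated with a concentration series. 20 uM Triacsin C defined 100% inhibition.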

[1] = measured here: lipid fluorescence (Fed channel) AC50, cells fed with added oleic acid
[2] = measured here: cell number channel AC50, cells fed with added oleic acid

Compound | cell number change [%] | AC50 [1] | AC50 [2]
COc1ccc(-c2nc(C3CCCCC3)no2)cc1OC | 29.3 | 29.1 µM [rising, single point] | –
COc1ccc2c(CC(=O)OCC(=O)Nc3cc(C)c(C)cc3[N+](=O)[O-])coc2c1 | 27.8 | 8.2 µM [rising, partial curve] | –
CC1(C)CC(=O)C/C(=N/NC(=O)COc2ccc(Cl)cc2Cl)C1 | 27.5 | 8.2 µM [rising, partial curve, poor fit] | –
Cc1ccc(S(=O)(=O)N2CCC(C(=O)Nc3nnc(COc4ccccc4)s3)CC2)cc1 | 7.37 | – | –
COc1ccccc1/C=N/NC(=S)Nc1cccnc1 | 21.9 | 4.61 µM [rising, full curve] | –
CCOC(=O)c1ccc(NC(=O)NNC(=O)CCc2ccc(OC)cc2)cc1 | -2.59 | 3.66 µM [rising, full curve, poor fit] | 0.461 µM [rising, single point]
O=C(COc1ccc(/C=N/NS(=O)(=O)c2ccccc2)cc1)NCc1ccccc1 | – | 29.1 µM [rising, single point] | –
O=C(NCc1cc(C(F)(F)F)cc(C(F)(F)F)c1)C1CC(c2cccc(F)c2)=NO1 (stereo not drawn) | 4.17 | 0.0092 µM [rising, full curve, poor fit] | –
Cc1sc(NC(=O)CCC(=O)O)c(C(N)=O)c1-c1ccccc1 | 58 | 1.3 µM [falling, single point] | 29.1 µM [rising, single point]
O=C(O)c1ccc(CN2CCCCC2)o1 | 0.26 | 14.6 µM [falling, partial curve] | –
CC1(NC(=O)c2cccc(S(=O)(=O)N3CCN(c4ccccc4)CC3)c2)CCS(=O)(=O)C1 (stereo not drawn) | 21.5 | 29.1 µM [rising, single point] | –
Cn1c(=O)cc(SCC(=O)N2CCCC2)c2ccccc21 | 26.5 | 6.51 µM [rising, single point] | –
CC(C)c1ccc(C(N)=S)cc1 | 47.5 | – | –
c1ccc(CSc2nnc(Cc3ccccn3)o2)cc1 | 35.1 | 13 µM [rising, partial curve] | 14.6 µM [rising, single point]
COc1ccc(N2CCN(C(=O)c3ccc(CSc4ccccc4)cc3)CC2)cc1 | -44.1 | 0.0651 µM [rising, full curve, poor fit] | 29.1 µM [falling, single point]
C=CCn1c(Oc2ccccc2F)nc2c1c(=O)n(C)c(=O)n2C | -8.4 | 0.731 µM [falling, full curve] | –
COc1ccc(NC(=O)CN2C(=O)CSC(C)C2=O)c(OC)c1 (stereo not drawn) | 9.05 | 0.82 µM [rising, single point] | –
CCOC(=O)c1cnc2c(C(=O)OC)cccc2c1NCc1cccnc1 | 2.68 | 1.84 µM [falling, partial curve] | 1.84 µM [falling, partial curve]
Cn1c(CNC(=O)c2ccccc2F)nnc1SCC(=O)N1CCN(c2ccccc2)CC1 | -26.7 | 29.1 µM [falling, single point] | –
CC(=O)N1CCCc2cc(S(=O)(=O)N(C)Cc3ccccc3)ccc21 | – | 1.84 µM [rising, partial curve] | 1.64 µM [rising, partial curve]

A draw from above in order of molecular weight, smallest number first.
Compound | cell number change [%] | AC50 [1] | AC50 [2]
Cn1c(=O)cc(SCC(=O)N2CCCC2)c2ccccc21 | 26.5 | 6.51 µM [rising, single point] | –
CCOC(=O)c1ccc(NC(=O)NNC(=O)CCc2ccc(OC)cc2)cc1 | -2.59 | 3.66 µM [rising, full curve, poor fit] | 0.461 µM [rising, single point]
COc1ccc2c(CC(=O)OCC(=O)Nc3cc(C)c(C)cc3[N+](=O)[O-])coc2c1 | 27.8 | 8.2 µM [rising, partial curve] | –

Additional compounds follow:

Compound | cell number change [%] | AC50 [1] | AC50 [2]
COc1ccccc1CN(C(=O)CCl)C(C(=O)NC1CCCCC1)c1ccncc1 (stereo not drawn) | -25.6 | 0.58 µM [falling, single point] | –
O=C(CCN1C(=O)COc2ccccc21)N1CCN(c2ccccn2)CC1 | 144 | 0.58 µM [rising, single point] | 29.1 µM [rising, single point]
COc1ccc(N2CCN(C(=O)NC(=O)c3ccccc3)CC2)cc1 | 32.1 | 23.1 µM [rising, single point] | 16.4 µM [rising, single point]
CC(C)OC(=O)c1ccc(NC(=O)c2ccccc2)cc1 | 26.8 | – | –
CN1CCC(OC(=O)c2ccccc2Cl)CC1 | 2.69 | 2.06 µM [falling, partial curve] | –
Cn1c(/N=C/c2cccs2)nc2ccccc21 | -11.4 | 0.116 µM [falling, full curve, poor fit] | –
Cc1ccc(OCCC(=O)Nc2ccc3c(c2)OCO3)cc1 | 11 | 0.146 µM [falling, full curve, poor fit] | 0.146 µM [falling, full curve, poor fit]
CS(=O)(=O)c1ccc(S(=O)CC(=O)OCc2ccccc2)c([N+](=O)[O-])c1 (stereo not drawn) | – | 29.1 µM [falling, single point] | –
COc1cc([C@@H]2CC=C(C(=O)O)[C@H](c3ccccc3)N2S(=O)(=O)c2ccc(C)cc2)cc(OC)c1OC | -1.85 | 0.00517 µM [rising, full curve, poor fit] | –
Cc1ccc(N(C(=O)CNC(=O)c2ccco2)C(C(=O)NC2CCCCC2)c2ccncc2)c(C)c1 (stereo not drawn) | -15.4 | – | –
COc1cc(C)cc(OC)c1OCC(=O)Nc1cc(C)on1 | -14.7 | 11.6 µM [falling, partial curve] | –
Cc1c(C(=O)OCC(=O)Nc2ccc(C(=O)N(C)C)cc2)oc2ccccc12 | 8.84 | 1.12 µM [rising, full curve, poor fit] | –
COc1ccc(C2CC(C(F)(F)F)n3nc(CO)c(Cl)c3N2)cc1OC (stereo not drawn) | -4.65 | – | –
CCC1CCCCN1C(=O)c1ccc(OC2CCN(C(=O)COC)CC2)cc1 (stereo not drawn) | 36.9 | 0.517 µM [rising, full curve, poor fit] | 0.461 µM [rising, partial curve]
Cc1ccc(OCC(=O)Nc2ccccc2C(=O)NC2CC2)cc1C | -6.79 | – | –
N#Cc1c2ccc(OCC(N)=O)cc2n2ccccc12 | 25.7 | 0.184 µM [rising, full curve, poor fit] | –
Oc1cc(Cc2ccccc2)cnc1CN1CCOCC1 | 12.4 | 0.146 µM [falling, full curve, poor fit] | 6.51 µM [falling, single point]
COc1ccc(C(CC(=O)N2CCN(c3ccccc3)CC2)c2c(OC)cc(OC)c3c(-c4ccccc4)cc(=O)oc23)cc1 (stereo not drawn) | 25.7 | – | –
O=C(NNC(=S)Nc1ccccc1C(F)(F)F)c1cccnc1 | -16.2 | 35.5 µM [falling, single point] | –
CSc1nsc(SC)c1NC(=O)OC1CCCCC1 | 6.44 | – | –

Compound | cell number change [%] | AC50 [1] | AC50 [2]
NC(=O)c1ccc(Oc2ccc3ccc(=O)oc3c2)c([N+](=O)[O-])c1 | 84.9 | 6.51 µM [rising, partial curve] | 20.6 µM [rising, partial curve]
CC[C@H]1c2[nH]c3ccccc3c2C[C@@H]2C(=O)N(c3ccc(F)cc3)C(=O)N21 | 12.9 | 1.84 µM [rising, single point] | –
CCN(CC(=O)Nc1ccc(NC(C)=O)cc1)C(=O)C1CC(=O)N(Cc2ccc(C)cc2)C1 (stereo not drawn) | -3.96 | 18.4 µM [rising, partial curve] | –
O=C(O)c1cc(S(=O)(=O)N2CC=C(c3ccccc3)CC2)ccc1O | -2.33 | 2.91 µM [falling, single point] | –
COc1ccc(Br)cc1-c1nc2c(c(=O)[nH]c(=O)n2Cc2ccccc2)n1C | 14.5 | 11.6 µM [rising, partial curve, poor fit] | –
COc1ccccc1C(=O)NCCC(=O)N(C)Cc1ccc(C)o1 | -13.3 | – | –
CCOC(=O)c1ccc(NC(=O)Cn2cnc3cc(C)c(C)cc32)cc1 | -33.9 | 10.3 µM [falling, partial curve] | 7.31 µM [falling, partial curve]
O=C(C=C=Nc1ccccc1)C(=O)N=C=Cc1ccccc1 | -23 | 0.13 µM [falling, full curve] | 0.13 µM [falling, full curve, poor fit]
Cc1c(C(N)=O)c(-c2ccccc2)nn1-c1ccccc1 | 2.07 | 0.13 µM [falling, full curve, poor fit] | –
CCOC(=O)C1C(=O)NC(c2ccccc2)=NC1c1ccc(OC)cc1 (stereo not drawn) | 31 | – | 0.366 µM [rising, full curve, poor fit]
Cc1ccc(S(=O)(=O)N2CCC(=O)N(C(CO)C(C)C)CC2)cc1 (stereo not drawn) | 17.6 | 0.82 µM [rising, full curve] | 1.03 µM [rising, full curve]
CCC(c1nnnn1C(C)(C)C)N1CCN(C(=O)c2ccco2)CC1 (stereo not drawn) | 3.75 | – | –
O=C(CN(C(=O)C1CSC(=O)C1)c1cccc(F)c1)NCc1ccc2c(c1)OCO2 (stereo not drawn) | 12.1 | 0.13 µM [rising, full curve, poor fit] | –
CCC(=O)c1ccc(OCC(=O)OCC(=O)Nc2ccc(C)c(S(=O)(=O)N3CCCCC3)c2)cc1 | 9.97 | 3.66 µM [falling, single point] | –
OCCNc1nc2ccccc2n1-c1ncnc2sc3c(c12)CCC3 | 5.76 | 29.1 µM [rising, single point] | 0.184 µM [rising, full curve, poor fit]
COc1cc(/C=C(\C#N)C(=O)NCC2CCCO2)ccc1O (stereo not drawn) | -44.6 | – | 16.4 µM [falling, single point]
CCOC(=O)c1cc(CC)sc1N1C(=O)CC(Sc2ccccc2C(=O)O)C1=O (stereo not drawn) | 21.8 | 29.1 µM [rising, partial curve, poor fit] | –
COc1ccc(NC(=O)CSc2nnc(NC(=O)CN3CCOCC3)s2)cc1 | -6.12 | – | –

Reference: PubChem BioAssay AID2685 (National Center for Advancing Translational Sciences (NCATS), 2010)
